## Percent effect of library compounds

Sequences of proteins named here, by UniProt entry; tags and fusion partners are left off. Residues count along the entry.
UniProt A4I591, 1-473: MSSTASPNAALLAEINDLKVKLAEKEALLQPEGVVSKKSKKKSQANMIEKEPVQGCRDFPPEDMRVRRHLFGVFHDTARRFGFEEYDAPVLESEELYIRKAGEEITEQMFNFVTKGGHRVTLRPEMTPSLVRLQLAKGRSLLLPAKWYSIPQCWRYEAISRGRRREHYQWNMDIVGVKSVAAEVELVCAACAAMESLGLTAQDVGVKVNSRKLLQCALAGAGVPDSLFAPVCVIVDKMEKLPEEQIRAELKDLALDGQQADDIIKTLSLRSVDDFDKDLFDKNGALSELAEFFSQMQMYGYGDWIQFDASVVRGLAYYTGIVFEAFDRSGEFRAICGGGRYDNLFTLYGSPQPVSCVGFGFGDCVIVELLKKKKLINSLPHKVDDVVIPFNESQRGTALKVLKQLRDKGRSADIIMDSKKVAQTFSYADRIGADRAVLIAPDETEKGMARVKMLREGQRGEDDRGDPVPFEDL
UniProt Q4DA54, 1-478: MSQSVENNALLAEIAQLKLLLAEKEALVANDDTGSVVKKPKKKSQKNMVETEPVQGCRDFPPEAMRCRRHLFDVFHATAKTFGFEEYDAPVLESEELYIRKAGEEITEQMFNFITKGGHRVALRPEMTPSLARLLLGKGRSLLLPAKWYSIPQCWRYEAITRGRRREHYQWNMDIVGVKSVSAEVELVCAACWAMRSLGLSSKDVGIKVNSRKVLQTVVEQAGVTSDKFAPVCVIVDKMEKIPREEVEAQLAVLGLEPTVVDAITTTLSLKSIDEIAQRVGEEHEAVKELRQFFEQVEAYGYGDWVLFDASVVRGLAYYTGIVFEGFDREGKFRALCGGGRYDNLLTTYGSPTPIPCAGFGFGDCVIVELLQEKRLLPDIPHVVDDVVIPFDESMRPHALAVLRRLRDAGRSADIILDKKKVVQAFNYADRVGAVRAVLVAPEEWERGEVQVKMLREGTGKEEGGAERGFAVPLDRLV
UniProt P9WPC5, whole entry: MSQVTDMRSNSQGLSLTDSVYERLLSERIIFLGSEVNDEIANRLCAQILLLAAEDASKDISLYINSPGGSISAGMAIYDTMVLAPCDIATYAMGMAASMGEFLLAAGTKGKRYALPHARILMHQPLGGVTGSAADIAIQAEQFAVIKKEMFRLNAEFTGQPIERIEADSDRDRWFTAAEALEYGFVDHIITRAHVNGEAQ
UniProt P9WPC3, whole entry partner: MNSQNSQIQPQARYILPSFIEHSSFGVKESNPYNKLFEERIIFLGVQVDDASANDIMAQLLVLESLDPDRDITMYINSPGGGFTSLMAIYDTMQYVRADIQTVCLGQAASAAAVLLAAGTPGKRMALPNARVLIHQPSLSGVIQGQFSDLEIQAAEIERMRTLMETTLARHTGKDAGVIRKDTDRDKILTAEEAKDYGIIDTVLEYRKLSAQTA

Source: ChEMBL document CHEMBL3988442, “University of Dundee, Small-Polar-MMV Screening Library” (2021).

LiHisRS: 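Histidine-tRNA ligase, Leishmania infantum (UniProt A4I591). Enzyme assay of histidyl-tRNA synthetase; the read-out is not stated. Compounds at 30 µM. Direction is inferred from retests: higher values go with stronger inhibition. The assay is labelled LdHisRS but filed under L. infantum. Of about 69,000 compounds tested this way, about 410 (0.6%) reached 50% or more in at least one test.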
TcHisRS: 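Histidine-tRNA ligase, Trypanosoma cruzi CL Brener (UniProt Q4DA54). Enzyme assay of histidyl-tRNA synthetase; the read-out is not stated. Tested at 30 µM. Direction is inferred from retests: higher values go with stronger inhibition. Of about 69,000 compounds tested this way, about 31 (0.045%) reached 50% or more in at least one test.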
ClpP1P2: 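ClpP1P2, Mycobacterium tuberculosis (UniProt P9WPC5 and UniProt P9WPC3). Protease assay of ClpP1P2, read by the AMC dye that it sets free. Compounds at 50 µM. Higher reads as stronger inhibition, judged from the few compounds that gave an IC50. Most other retested compounds had strongly negative values. About 69,000 compounds were tested under these conditions; 0.015% (about 10) showed 50% or more at least once.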

Results are given as percent effect. The record does not define 0% and 100%; most values in the screen are far below 50% and negative numbers occur (in some assays of this library far below -100). The compounds are a random part of those screened.

structure	LiHisRS	TcHisRS	ClpP1P2
CN(C)CCNc1ccc(-c2nc(-c3ccccc3F)no2)cn1	-2.857%	6.122%	-10.86%
CC(C)c1nc(N2CCC(N3CCCCCC3)CC2)c2cnn(C)c2n1	-3.191%	44.22%	-25.89%
Cc1noc(C2CCCCN2C(=O)NC2CCCC2)n1 (stereo not drawn)	17.14%	2.174%	-8.351%
Cc1nnc([C@@]23CCO[C@@H]2CCN(S(C)(=O)=O)C3)o1	23.68%	-1.149%	8.751%
COc1cccc(CCC(=O)Nc2cnc3c(c2)c(C)nn3C)c1OC	-8.333%	-5.217%	7.683%
Cc1nc(N(C)C2CCCCC2)ncc1C(C)NC(=O)c1cscn1 (stereo not drawn)	-1.316%	-19.57%	1.001%
CC(=O)Nc1ccc(CNc2cccc(OCCF)c2)cc1	6.306%	8.333%	6.009%
Cc1ccc(S(=O)(=O)Nc2ccc(C)c(C(=O)O)c2)s1	21.43%	6.383%	1.599%
COCC(NC(=O)NCc1cccc(Cl)c1)c1ccco1 (stereo not drawn)	5.759%	11.23%	4.309%
CC(C)(O)CCc1cccc(C(=O)NCc2cnn3cccnc23)c1	2.222%	1.818%	-1.718%
CSCc1cc(F)ccc1CNC(=O)N1CCC(CO)CC1	-1.429%	5.319%	-5.431%
CCCN1C[C@H](NC(=O)c2cc(C)no2)[C@@H](c2ccc(OC)cc2)C1	13.68%	2.985%	-1.142%
Fc1cccc(N2CCCC3(CN(Cc4ccccn4)CCO3)C2)c1 (stereo not drawn)	19.3%	7.527%	-7.013%
COCCC(=O)N(Cc1cccnc1)CC1CCN(C2CCCC2)CC1	11.43%	4.082%	-2.738%
Cc1ccc(CN2C[C@H](N3CCOCC3)[C@@H]3OCCC[C@@H]32)o1	27.63%	14.13%	5.325%
O=C1CC(c2ccc(C(=O)O)cc2)c2ncn(-c3ccc(Cl)cc3)c2N1 (stereo not drawn)	55%	25%	8.72%
N#Cc1cccc(OCCN2CCCC2C(=O)NC2CC2)c1 (stereo not drawn)	19.64%	6.14%	6.134%
Cc1nc(NC(=O)c2c(-n3cnnn3)sc3c2CCCC3)sc1C	19.57%	8.911%	1.045%
Cn1cccc1C(O)CNC(=O)c1ccc(C(F)(F)F)cc1 (stereo not drawn)	12.2%	10.1%	-11.7%
CN1CCCC(c2cccc(-c3ccccc3F)n2)C1 (stereo not drawn)	12.59%	4.52%	-14.69%
Cc1cccc2sc(NC(=O)CN3CCCC(O)(CO)C3)nc12 (stereo not drawn)	-2.667%	2.717%	13.83%
Clc1ccc2oc(C3CCN(Cc4cccnc4)CC3)nc2c1	7.692%	-1.667%	-1.914%
CCc1nc(Cn2ccnc2-c2nccn2C)no1	5.263%	5.028%	0.2301%
Cc1nn(C)c2nc(N3CCN(Cc4nccn4C)CC3)sc12	16.78%	13.43%	3.511%
CCN(Cc1nc2c(cnn2C)c(=O)[nH]1)c1cccc(C)c1	7.826%	-1.69%	-1.71%
Cc1cc(N2CCCN(c3ccnc(C)c3)CC2)ccn1	5.882%	5.82%	0.9083%
CCCc1cc(=O)[nH]c(-c2cccc(CN3CCN4CCCC4C3)c2)n1 (stereo not drawn)	10.75%	3.704%	-5.843%
Cc1ccc2nc(N3CCN(CC(=O)NC(C)C)CC3)cc(C)c2c1	22.86%	12.24%	2.968%
c1ccc(CO[C@@H]2CC[C@H]3[C@H]2OCCN3Cc2ccsc2)nc1	11.5%	2.4%	-2.758%
FC(F)c1nnc2ccc(N3CCC4(CCCCC4)C3)nn12	29.41%	11.76%	-4.014%
CCS(=O)(=O)N1CC(=O)N(CCCc2ccccc2)CC(O)C1 (stereo not drawn)	10.31%	5.78%	-4.476%
COc1ncnc2c1CCN(C(=O)Cc1cccc(F)c1)CC2	17.24%	7.595%	2.975%
COc1cc(F)c(CN2CCN(CC(C)C)C(=O)C2C)cc1OC (stereo not drawn)	10.75%	13.58%	2.431%
COCC(=O)N1CCOCC2(CCN(Cc3cccs3)C2)C1 (stereo not drawn)	2.778%	3.81%	-24.67%
O=C1C[C@H]2CC[C@@H](CN1)N2C1CSCCSC1	6.195%	2.4%	-5.55%
Cn1ccnc1CN1CCCN(C(=O)COCC2CC2)CC1	11.3%	1.127%	-9.153%
CCCN1CCCN(C(=O)c2ccc(Oc3cccnc3)cc2)CC1	7.692%	-3.448%	2.039%
NC(=O)[C@H]1CCCN(c2nccc(-c3c[nH]nc3-c3cccnc3)n2)C1	2.857%	1.13%	-5.181%

The last 4 entries again:

With O=C1C[C@H]2CC[C@@H](CN1)N2C1CSCCSC1 the screen gave LiHisRS: 6.195%; TcHisRS: 2.4%; ClpP1P2: -5.55%.
With Cn1ccnc1CN1CCCN(C(=O)COCC2CC2)CC1 the screen gave LiHisRS: 11.3%; TcHisRS: 1.127%; ClpP1P2: -9.153%.
With CCCN1CCCN(C(=O)c2ccc(Oc3cccnc3)cc2)CC1 the screen gave LiHisRS: 7.692%; TcHisRS: -3.448%; ClpP1P2: 2.039%.
With NC(=O)[C@H]1CCCN(c2nccc(-c3c[nH]nc3-c3cccnc3)n2)C1 the screen gave LiHisRS: 2.857%; TcHisRS: 1.13%; ClpP1P2: -5.181%.